Test results reported in the supplement of paper PMC10849652.
The list shows a part of the results.

By UniProt entry, the sequences of proteins in these tests, tags left out. Where a name states a change or a piece, a line headed by the entry shows the natural chain unless it says otherwise.
UniProt Q86VG3: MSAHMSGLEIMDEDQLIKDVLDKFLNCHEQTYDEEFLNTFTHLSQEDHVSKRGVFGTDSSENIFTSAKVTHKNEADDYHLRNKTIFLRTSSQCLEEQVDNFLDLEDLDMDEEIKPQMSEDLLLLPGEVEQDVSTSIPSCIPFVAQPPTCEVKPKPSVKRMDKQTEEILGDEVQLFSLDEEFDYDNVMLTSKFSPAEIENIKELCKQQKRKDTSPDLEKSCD
UniProt P07384: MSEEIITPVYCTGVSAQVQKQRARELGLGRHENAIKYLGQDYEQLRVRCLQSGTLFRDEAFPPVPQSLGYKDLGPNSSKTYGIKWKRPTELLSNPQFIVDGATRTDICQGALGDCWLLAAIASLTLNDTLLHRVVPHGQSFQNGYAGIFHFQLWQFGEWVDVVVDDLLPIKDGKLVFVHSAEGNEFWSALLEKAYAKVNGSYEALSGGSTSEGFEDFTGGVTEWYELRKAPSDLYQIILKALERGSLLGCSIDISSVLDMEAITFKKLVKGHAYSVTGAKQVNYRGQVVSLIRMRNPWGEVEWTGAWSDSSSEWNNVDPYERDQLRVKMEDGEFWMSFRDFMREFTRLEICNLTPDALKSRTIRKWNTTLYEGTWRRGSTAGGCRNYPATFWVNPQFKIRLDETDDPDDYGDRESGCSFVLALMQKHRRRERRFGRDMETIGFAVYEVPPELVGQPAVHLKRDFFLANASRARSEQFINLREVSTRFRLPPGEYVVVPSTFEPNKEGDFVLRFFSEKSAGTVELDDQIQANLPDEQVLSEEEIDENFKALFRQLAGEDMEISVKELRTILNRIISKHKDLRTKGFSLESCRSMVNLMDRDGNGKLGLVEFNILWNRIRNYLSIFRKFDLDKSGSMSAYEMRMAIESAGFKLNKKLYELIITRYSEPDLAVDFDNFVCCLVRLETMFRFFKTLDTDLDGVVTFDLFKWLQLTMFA
UniProt Q5U649: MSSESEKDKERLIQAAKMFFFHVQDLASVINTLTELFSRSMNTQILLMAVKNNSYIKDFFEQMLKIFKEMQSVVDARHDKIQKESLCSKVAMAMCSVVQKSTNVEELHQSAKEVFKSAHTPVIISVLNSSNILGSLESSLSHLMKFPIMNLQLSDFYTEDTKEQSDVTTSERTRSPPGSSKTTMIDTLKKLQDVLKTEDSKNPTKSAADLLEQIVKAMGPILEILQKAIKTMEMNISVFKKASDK
UniProt A1L170: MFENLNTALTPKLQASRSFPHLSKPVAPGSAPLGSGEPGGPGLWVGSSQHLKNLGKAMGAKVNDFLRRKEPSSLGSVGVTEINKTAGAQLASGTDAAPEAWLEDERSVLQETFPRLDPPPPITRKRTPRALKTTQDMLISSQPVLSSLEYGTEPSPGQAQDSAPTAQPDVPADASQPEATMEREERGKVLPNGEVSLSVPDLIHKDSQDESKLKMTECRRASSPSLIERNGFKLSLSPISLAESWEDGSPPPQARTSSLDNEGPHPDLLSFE
UniProt Q9BXL7: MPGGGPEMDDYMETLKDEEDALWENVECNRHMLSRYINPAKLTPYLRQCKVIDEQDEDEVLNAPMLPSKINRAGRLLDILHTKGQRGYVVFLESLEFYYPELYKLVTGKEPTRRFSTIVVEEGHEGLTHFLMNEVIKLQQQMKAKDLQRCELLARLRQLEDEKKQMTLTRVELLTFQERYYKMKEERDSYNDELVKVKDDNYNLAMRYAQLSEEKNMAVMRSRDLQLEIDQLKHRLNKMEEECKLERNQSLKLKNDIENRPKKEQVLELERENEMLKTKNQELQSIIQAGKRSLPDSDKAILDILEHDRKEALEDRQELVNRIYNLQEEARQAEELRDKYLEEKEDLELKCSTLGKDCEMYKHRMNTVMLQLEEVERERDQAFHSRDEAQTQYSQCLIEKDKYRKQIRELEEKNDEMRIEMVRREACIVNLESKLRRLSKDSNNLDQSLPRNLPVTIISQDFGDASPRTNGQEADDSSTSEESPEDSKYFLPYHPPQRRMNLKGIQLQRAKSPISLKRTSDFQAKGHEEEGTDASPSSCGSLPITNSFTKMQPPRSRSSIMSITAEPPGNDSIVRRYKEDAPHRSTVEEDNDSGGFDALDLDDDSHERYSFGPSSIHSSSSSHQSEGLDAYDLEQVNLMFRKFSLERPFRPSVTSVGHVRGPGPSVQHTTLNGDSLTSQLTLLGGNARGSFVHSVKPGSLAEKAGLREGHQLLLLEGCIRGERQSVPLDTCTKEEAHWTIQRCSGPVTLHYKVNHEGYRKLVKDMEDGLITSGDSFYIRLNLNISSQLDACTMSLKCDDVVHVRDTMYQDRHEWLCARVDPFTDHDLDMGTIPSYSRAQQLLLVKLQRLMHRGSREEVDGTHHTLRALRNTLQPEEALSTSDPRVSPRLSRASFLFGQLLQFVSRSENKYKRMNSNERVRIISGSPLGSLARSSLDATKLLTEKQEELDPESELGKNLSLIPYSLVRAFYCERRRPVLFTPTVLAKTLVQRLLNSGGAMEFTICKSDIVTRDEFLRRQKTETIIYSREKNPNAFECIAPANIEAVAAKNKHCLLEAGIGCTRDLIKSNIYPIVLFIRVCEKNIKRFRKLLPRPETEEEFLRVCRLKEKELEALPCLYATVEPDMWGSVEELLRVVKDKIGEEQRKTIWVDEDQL
UniProt Q2NKX9: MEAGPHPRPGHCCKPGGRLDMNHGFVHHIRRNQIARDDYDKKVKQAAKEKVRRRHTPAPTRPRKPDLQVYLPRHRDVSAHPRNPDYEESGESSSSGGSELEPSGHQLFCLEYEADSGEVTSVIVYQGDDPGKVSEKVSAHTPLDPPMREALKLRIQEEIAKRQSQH
UniProt Q5SNV9: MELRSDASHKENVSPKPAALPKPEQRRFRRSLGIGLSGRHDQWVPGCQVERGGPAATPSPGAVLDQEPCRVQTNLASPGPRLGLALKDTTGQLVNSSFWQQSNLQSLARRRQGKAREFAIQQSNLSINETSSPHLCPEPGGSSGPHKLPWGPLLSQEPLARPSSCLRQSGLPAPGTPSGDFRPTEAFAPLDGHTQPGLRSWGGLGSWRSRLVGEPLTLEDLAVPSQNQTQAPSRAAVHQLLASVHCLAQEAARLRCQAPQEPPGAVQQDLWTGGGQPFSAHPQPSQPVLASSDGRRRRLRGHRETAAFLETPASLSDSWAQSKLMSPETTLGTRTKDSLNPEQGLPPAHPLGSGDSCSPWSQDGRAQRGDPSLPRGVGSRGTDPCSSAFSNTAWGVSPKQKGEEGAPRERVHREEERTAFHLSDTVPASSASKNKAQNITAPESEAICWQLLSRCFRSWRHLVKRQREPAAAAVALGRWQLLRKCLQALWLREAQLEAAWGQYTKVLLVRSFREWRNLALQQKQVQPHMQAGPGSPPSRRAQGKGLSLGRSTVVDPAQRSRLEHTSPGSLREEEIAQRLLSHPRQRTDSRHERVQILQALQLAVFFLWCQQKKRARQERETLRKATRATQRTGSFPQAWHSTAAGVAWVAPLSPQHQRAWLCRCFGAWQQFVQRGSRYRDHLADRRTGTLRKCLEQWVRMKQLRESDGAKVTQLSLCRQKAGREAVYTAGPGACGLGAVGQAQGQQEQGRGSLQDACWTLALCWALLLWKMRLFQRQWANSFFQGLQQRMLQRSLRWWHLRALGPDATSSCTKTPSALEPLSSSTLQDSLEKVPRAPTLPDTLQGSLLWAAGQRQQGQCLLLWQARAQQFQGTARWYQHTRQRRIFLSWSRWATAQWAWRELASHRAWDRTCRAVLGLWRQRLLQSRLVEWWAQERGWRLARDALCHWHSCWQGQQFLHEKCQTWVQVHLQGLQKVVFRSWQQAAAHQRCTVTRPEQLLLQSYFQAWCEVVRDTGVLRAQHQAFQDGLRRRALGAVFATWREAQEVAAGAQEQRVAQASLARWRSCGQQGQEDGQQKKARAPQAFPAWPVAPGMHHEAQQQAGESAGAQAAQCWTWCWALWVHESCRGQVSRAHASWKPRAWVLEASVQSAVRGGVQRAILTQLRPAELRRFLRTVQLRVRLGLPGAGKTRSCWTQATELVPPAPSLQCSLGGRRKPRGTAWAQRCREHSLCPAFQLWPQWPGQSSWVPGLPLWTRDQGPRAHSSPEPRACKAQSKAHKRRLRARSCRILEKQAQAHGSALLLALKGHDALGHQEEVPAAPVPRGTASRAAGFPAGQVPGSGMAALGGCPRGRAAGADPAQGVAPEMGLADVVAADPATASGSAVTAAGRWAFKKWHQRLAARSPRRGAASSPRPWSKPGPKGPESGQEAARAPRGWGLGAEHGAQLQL
UniProt O14523: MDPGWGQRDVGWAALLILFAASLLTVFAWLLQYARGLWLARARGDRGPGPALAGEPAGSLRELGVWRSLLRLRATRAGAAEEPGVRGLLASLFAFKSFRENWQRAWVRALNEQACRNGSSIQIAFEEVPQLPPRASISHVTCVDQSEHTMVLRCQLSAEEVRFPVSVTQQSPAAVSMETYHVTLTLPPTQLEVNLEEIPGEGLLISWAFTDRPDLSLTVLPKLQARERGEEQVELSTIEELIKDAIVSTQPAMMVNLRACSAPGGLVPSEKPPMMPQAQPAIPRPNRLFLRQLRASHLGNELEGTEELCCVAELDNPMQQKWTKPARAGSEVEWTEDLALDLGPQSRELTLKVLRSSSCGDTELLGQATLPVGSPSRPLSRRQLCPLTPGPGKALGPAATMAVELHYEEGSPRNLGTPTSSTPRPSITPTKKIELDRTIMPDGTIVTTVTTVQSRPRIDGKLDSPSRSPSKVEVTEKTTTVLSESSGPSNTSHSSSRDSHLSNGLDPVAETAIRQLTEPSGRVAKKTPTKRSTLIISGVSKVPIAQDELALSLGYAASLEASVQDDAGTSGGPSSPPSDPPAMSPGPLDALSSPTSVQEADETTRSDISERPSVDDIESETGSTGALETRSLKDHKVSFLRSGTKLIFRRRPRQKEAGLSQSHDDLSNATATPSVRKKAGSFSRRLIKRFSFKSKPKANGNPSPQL
UniProt Q9BSJ5: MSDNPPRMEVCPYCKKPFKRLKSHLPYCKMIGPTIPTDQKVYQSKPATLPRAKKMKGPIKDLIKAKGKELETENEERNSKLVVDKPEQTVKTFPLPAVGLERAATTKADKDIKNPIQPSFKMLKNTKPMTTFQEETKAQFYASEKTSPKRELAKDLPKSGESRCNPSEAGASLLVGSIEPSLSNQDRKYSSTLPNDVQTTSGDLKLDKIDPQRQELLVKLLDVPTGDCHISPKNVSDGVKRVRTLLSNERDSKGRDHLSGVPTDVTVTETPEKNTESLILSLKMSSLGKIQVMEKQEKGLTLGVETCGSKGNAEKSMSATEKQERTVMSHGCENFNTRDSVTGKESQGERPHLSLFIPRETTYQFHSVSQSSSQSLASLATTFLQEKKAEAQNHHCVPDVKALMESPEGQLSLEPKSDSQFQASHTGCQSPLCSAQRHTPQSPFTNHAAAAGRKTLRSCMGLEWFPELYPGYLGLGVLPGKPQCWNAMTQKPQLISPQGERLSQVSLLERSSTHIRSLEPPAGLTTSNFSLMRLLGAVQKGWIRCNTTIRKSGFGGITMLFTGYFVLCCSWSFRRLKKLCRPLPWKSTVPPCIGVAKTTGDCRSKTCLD
UniProt P22676: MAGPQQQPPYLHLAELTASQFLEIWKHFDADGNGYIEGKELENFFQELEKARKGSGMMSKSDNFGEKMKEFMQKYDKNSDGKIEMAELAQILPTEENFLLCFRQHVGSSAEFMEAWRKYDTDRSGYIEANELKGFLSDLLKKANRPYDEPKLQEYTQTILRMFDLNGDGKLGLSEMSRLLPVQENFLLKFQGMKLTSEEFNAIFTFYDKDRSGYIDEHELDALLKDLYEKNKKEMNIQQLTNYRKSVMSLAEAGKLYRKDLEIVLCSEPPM
UniProt Q96EU7: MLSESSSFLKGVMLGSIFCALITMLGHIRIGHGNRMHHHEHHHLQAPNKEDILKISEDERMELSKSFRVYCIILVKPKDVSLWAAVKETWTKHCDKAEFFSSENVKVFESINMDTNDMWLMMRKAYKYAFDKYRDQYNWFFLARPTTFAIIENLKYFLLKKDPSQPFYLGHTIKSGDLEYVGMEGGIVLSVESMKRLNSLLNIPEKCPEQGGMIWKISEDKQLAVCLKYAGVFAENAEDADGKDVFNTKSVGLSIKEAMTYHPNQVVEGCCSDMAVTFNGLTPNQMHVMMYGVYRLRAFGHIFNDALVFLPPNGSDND
UniProt Q7L1Q6: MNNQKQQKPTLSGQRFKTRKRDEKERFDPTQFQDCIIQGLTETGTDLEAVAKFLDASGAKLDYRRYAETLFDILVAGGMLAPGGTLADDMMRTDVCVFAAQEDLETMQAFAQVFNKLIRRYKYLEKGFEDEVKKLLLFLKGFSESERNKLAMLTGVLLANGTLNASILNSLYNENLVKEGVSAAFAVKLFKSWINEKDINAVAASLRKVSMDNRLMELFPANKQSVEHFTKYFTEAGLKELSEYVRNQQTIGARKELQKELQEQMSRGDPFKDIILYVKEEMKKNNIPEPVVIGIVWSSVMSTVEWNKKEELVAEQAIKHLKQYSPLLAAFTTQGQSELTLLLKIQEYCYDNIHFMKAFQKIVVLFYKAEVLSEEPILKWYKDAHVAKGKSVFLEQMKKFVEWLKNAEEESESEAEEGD

What was measured:
Assay in all cases: log2 fold change, soluble protein after heating vs DMSO (PISA); higher = thermal stabilisation; K562 lysate, 10 uM; active = over 0.2 and 3.5 SD of the protein, either way, in both replicates (recomputed)
[1] = compound: NCC(=O)Nc1ccc(-n2nc(C(F)(F)F)cc2-c2ccc3c(ccc4ccccc43)c2)cc1
Procedure, shortened: (§1)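 Soluble protein was defined as the supernatant remaining after 21,000xg for 90 min, following pooling of heated aliquots and adjustment to 0.5% NP-40 at 4°C. Before that, crude K562 extract at 1 mg/mL protein in PBS pH 7.4 with 1 mM MgCl2 was treated with 10 μM compound for 30 min and heated for 3 min across 48°C-58°C. Quantification used TMTpro 16plex LC-MS/MS with channel sums equalised, and values are log-two fold changes in thermal stability relative to solvent controls from duplicates.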

vorinostat = compound: O=C(CCCCCCC(=O)Nc1ccccc1)NO [vorinostat]
Procedure, shortened: as §1

silmitasertib = compound: O=C(O)c1ccc2c(c1)nc(Nc1cccc(Cl)c1)c1ccncc12 [silmitasertib]
Procedure, shortened: as §1

[2] = compound: O=C1NC(=O)C(c2cnc3ccccn23)=C1c1cn2c3c(cc(F)cc13)CN(C(=O)N1CCCCC1)CC2
Procedure, shortened: as §1

entospletinib = compound: c1cn2cc(-c3ccc4cn[nH]c4c3)nc(Nc3ccc(N4CCOCC4)cc3)c2n1 [entospletinib]
Procedure, shortened: as §1

Target | log2 fold change [1] | log2 fold change (vorinostat) | log2 fold change (silmitasertib) | log2 fold change [2] | log2 fold change (entospletinib)
CAMLG (UniProt P49069) | inactive: -0.009 | inactive: -0.15 | inactive: -0.027 | inactive: 0.006 | inactive: 0.001
CAPNS1 (UniProt K7ES78) | inactive: -0.234 | inactive: -0.011 | inactive: -0.037 | inactive: 0.141 | –
C11orf74 (UniProt Q86VG3) | inactive: 0.006 | inactive: -0.067 | inactive: -0.028 | inactive: -0.075 | inactive: -0.001
CAPN1 (UniProt P07384) | inactive: -0.006 | inactive: 0.047 | inactive: -0.005 | inactive: -0.007 | inactive: 0.02
C12orf60 (UniProt Q5U649) | inactive: 0.09 | inactive: 0.394 | inactive: 0.287 | inactive: 0.024 | –
C1orf226 isoform 2 (UniProt A1L170) | inactive: -0.087 | – | – | – | –
CAMK2B (UniProt Q13554) | inactive: 0.014 | inactive: -0.133 | inactive: -0.017 | inactive: 0.056 | inactive: -0.02
CAMSAP3 isoform 2 (UniProt Q9P1Y5) | inactive: 0.048 | – | – | – | –
CAB39L (UniProt Q9H9S4) | inactive: 0.037 | inactive: 0.045 | inactive: -0.06 | inactive: 0.112 | –
C1orf131 isoform 5 (UniProt Q8NDD1) | inactive: 0.059 | active: -0.445 | inactive: -0.025 | inactive: 0.039 | inactive: -0.013
C8orf76 (UniProt Q96K31) | inactive: 0.026 | inactive: -0.035 | inactive: 0.044 | inactive: -0.044 | inactive: -0.051
CANX (UniProt D6RHJ3) | inactive: 0.012 | – | – | – | –
CARD11 (UniProt Q9BXL7) | inactive: -0.113 | active: -0.406 | inactive: 0.001 | inactive: 0.004 | inactive: -0.031
C2orf68 (UniProt Q2NKX9) | inactive: 0.055 | inactive: 0.064 | inactive: -0.028 | inactive: 0.019 | inactive: -0.009
C1orf167 isoform 2 (UniProt Q5SNV9) | inactive: 0.169 | inactive: -0.092 | inactive: -0.023 | inactive: -0.124 | –
BTN3A3 (UniProt O00478) | inactive: -0.252 | inactive: 0.077 | inactive: 0.002 | inactive: -0.052 | –
C19orf54 (UniProt Q5BKX5) | inactive: -0.052 | active: -0.381 | inactive: -0.004 | inactive: -0.006 | inactive: 0.009
C19orf25 (UniProt Q9UFG5) | inactive: 0.134 | inactive: 0.207 | inactive: -0.059 | inactive: 0.127 | –
C18orf32 (UniProt Q8TCD1) | inactive: 0.004 | active: -0.486 | inactive: -0.021 | inactive: 0.017 | inactive: -0.071
C9orf16 (UniProt Q9BUW7) | inactive: 0.089 | inactive: 0.161 | inactive: -0.091 | inactive: -0.083 | inactive: 0.038
C4BPA (UniProt P04003) | inactive: 0.018 | inactive: 0.168 | inactive: -0.044 | inactive: -0.127 | –
CAP1 (UniProt Q01518) | inactive: -0.001 | inactive: 0.112 | inactive: -0.005 | inactive: 0.008 | inactive: 0.015
C11orf68 isoform 3 (UniProt Q9H3H3) | inactive: -0.017 | inactive: -0.149 | inactive: -0.021 | inactive: -0.043 | inactive: -0.033
C7orf50 (UniProt Q9BRJ6) | inactive: 0.02 | inactive: 0.044 | inactive: -0.031 | inactive: -0.044 | inactive: 0.007
C2CD2L (UniProt O14523) | inactive: 0.03 | inactive: -0.015 | inactive: 0.013 | inactive: 0.058 | inactive: 0.07
C4A (UniProt P0C0L4) | inactive: 0.179 | inactive: 0.055 | inactive: 0.023 | inactive: -0.034 | inactive: 0.05
BUB1B isoform 3 (UniProt O60566) | inactive: 0.004 | active: -0.376 | inactive: 0.015 | inactive: 0.006 | inactive: 0.013
C7orf26 (UniProt Q96N11) | inactive: 0.139 | inactive: -0.191 | inactive: -0.006 | inactive: -0.084 | inactive: 0.205

Copied from the list:
log2 fold change (entospletinib), CAPN1 (UniProt P07384) is entered as inactive: 0.02
log2 fold change [2], BTN3A3 (UniProt O00478) is entered as inactive: -0.052
log2 fold change [1], C1orf167 isoform 2 (UniProt Q5SNV9) is entered as inactive: 0.169
log2 fold change [1], C4A (UniProt P0C0L4) is entered as inactive: 0.179
log2 fold change (entospletinib), C11orf74 (UniProt Q86VG3) is entered as inactive: -0.001

Shown in CSV form: entries from further up.
Target,log2 fold change [1],log2 fold change (vorinostat),log2 fold change (silmitasertib),log2 fold change [2],log2 fold change (entospletinib)
CAB39L (UniProt Q9H9S4),inactive: 0.037,inactive: 0.045,inactive: -0.06,inactive: 0.112,–
C1orf131 isoform 5 (UniProt Q8NDD1),inactive: 0.059,active: -0.445,inactive: -0.025,inactive: 0.039,inactive: -0.013

The list continues:

Target | log2 fold change [1] | log2 fold change (vorinostat) | log2 fold change (silmitasertib) | log2 fold change [2] | log2 fold change (entospletinib)
C17orf80 (UniProt Q9BSJ5) | inactive: 0.089 | inactive: 0.113 | inactive: -0.043 | inactive: 0.118 | –
CAPG (UniProt P40121) | inactive: 0.021 | inactive: 0.08 | inactive: -0.026 | inactive: -0.021 | inactive: 0.01
CALB2 (UniProt P22676) | inactive: 0.067 | inactive: 0.156 | inactive: 0.017 | inactive: 0.063 | inactive: 0.019
C15orf41 (UniProt Q9Y2V0) | inactive: -0.124 | active: -0.362 | inactive: -0.011 | inactive: -0.012 | inactive: 0.04
CALU isoform 3 (UniProt O43852) | inactive: 0.003 | inactive: 0.142 | inactive: -0.029 | inactive: -0.023 | inactive: -0.002
C5orf51 (UniProt A6NDU8) | inactive: 0.042 | active: -0.501 | inactive: 0.036 | inactive: -0.003 | inactive: 0.015
BYSL (UniProt Q13895) | inactive: -0.012 | inactive: -0.079 | inactive: 0.054 | inactive: -0.019 | inactive: 0.017
C16orf58 (UniProt Q96GQ5) | inactive: -0.031 | inactive: 0.239 | inactive: 0.075 | inactive: -0.001 | inactive: -0.019
CAPZB (UniProt P47756) | inactive: -0.001 | inactive: 0.062 | inactive: -0.007 | inactive: -0.013 | inactive: 0.015
C8orf37 (UniProt Q96NL8) | inactive: 0.206 | inactive: 0.084 | inactive: 0.044 | inactive: 0.008 | inactive: -0.035
CA8 (UniProt P35219) | inactive: 0.023 | inactive: -0.014 | inactive: 0.031 | inactive: 0.028 | inactive: 0.027
CALR (UniProt P27797) | inactive: 0.002 | inactive: 0.108 | inactive: 0.008 | inactive: -0.01 | inactive: -0.02
C11orf54 (UniProt Q9H0W9) | inactive: 0.008 | inactive: 0.155 | inactive: -0.048 | inactive: -0.01 | inactive: -0.009
BUB3 (UniProt O43684) | inactive: 0.016 | inactive: -0.09 | inactive: -0.007 | inactive: -0.029 | inactive: 0.002
CACYBP (UniProt Q9HB71) | inactive: 0.009 | inactive: 0.087 | inactive: -0.01 | inactive: -0.013 | inactive: 0.011
C1orf122 (UniProt Q6ZSJ8) | inactive: -0.024 | inactive: -0.047 | inactive: 0.034 | inactive: 0.024 | inactive: -0.035
C2orf49 (UniProt Q9BVC5) | inactive: 0.053 | inactive: -0.079 | inactive: -0.065 | inactive: 0.001 | inactive: -0.041
CAPN15 (UniProt O75808) | inactive: 0.028 | active: -0.504 | inactive: -0.016 | inactive: -0.081 | inactive: -0.043
C4orf33 (UniProt Q8N1A6) | inactive: 0.013 | inactive: 0.031 | inactive: -0.048 | inactive: -0.002 | inactive: -0.009
CA13 (UniProt Q8N1Q1) | inactive: 0.038 | inactive: 0.171 | inactive: 0.013 | inactive: 0.046 | inactive: -0.002
C1GALT1C1 (UniProt Q96EU7) | inactive: -0.028 | inactive: 0.134 | inactive: 0.003 | inactive: -0.011 | inactive: 0.025
CAMKK1 isoform 2 (UniProt Q8N5S9) | inactive: 0.006 | inactive: -0.255 | inactive: 0.072 | inactive: -0.007 | inactive: -0.078
C12orf65 (UniProt Q9H3J6) | inactive: -0.028 | inactive: 0.039 | inactive: -0.056 | inactive: -0.027 | inactive: 0.116
BZW2 (UniProt Q9Y6E2) | inactive: 0.005 | inactive: 0.031 | inactive: 0.031 | inactive: -0.013 | inactive: 0.019
CAD (UniProt P27708) | inactive: 0.012 | inactive: -0.067 | inactive: 0.026 | inactive: 0.008 | inactive: 0
BZW1 isoform 3 (UniProt Q7L1Q6) | inactive: -0.027 | inactive: -0.044 | inactive: 0.03 | inactive: -0.026 | inactive: 0.022
CACUL1 (UniProt Q86Y37) | inactive: 0.176 | active: -0.543 | inactive: 0.024 | inactive: -0.081 | inactive: -0.056
